Out of some 330,000 compounds screened, about 7,700 (2.3%) were called active. This list was built around the results that the source calls inconclusive (neither active nor inactive); the mix of calls is not that of the screen. Calls come from the whole dose curve; as a rule, active = well fitted inhibition curve with a large enough effect; inconclusive = small, poorly fitted or top-dose-only effect, or effect the other way; inactive = flat fitted curve, though single readings scatter. Where the call is inconclusive, the potency comes from a doubtful curve fit.
experiment: qHTS screen for small molecules that inhibit ELG1-dependent DNA repair in human embryonic kidney (HEK293T) cells expressing luciferase-tagged ELG1; conditions: HEK293T ELG1-luciferase reporter, luminescence, 16 h, DNA damage induced by 5-fluorouridine; activity change, negative = inhibition: at 46.1 µM (top of the series); note: nearly all actives have a fitted effect of over 55% in size
Procedure, shortened: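 Overnight (16 hr) co-exposure of 2,000 cells/well to 5-fluorouridine and compound at 37 °C preceded detection. Luciferase was quantified via ONE-Glo luminescence; loss of signal denotes inhibition.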
% is set by controls: 0 for no effect and ±100 for the full control effect; potency is the fitted concentration of half-maximal effect.

Compound | Potency | activity change, negative = inhibition
CCCCCCn1cc(C(=O)OCC)c(=O)c2cc(F)c(F)cc21 | inconclusive: 29.1 µM [inhibitor, single point] | –
O=C(Nc1cc(Cl)ccc1F)C1=COCCO1 | inconclusive: 5.17 µM [activator, partial curve] | –
CCOC(=O)COn1c(=O)c(-c2ccco2)[n+]([O-])c2ccccc21 | – | inactive: 4.8%
CCOc1ccccc1C1C(C(N)=O)=C(C)Nc2nc(-c3cccc(C)c3)nn21 (configuration not stated) | inconclusive: 18.4 µM [inhibitor, partial curve] | –
O=C(CSc1nnc2n1CCCN2)c1ccccc1 | inconclusive: 16.4 µM [activator, partial curve, poor fit] | –
CCN1CCn2c3c(c4cc(C)ccc42)CCCC31 (configuration not stated) | – | inactive: 8.76%
COCCCNC(=S)Nc1ccc(OC(F)F)cc1C | – | inactive: -1.51%
COc1ccc(C(=O)CNc2ccccc2C#N)cc1 | inconclusive: 23.1 µM [activator, partial curve] | –
O=C(CN1CCCc2ccccc21)Nc1cccc(S(=O)(=O)N2CCOCC2)c1 | – | inactive: 0.0816%
Cc1cc(=O)[nH]c(SCC(=O)Nc2ccccc2C#N)c1C#N | inconclusive: 20.6 µM [activator, partial curve, poor fit] | –
Nc1nnc(SCC(=O)c2ccc3ccccc3c2)s1 | inconclusive: 10.3 µM [activator, partial curve] | –
CCCCOc1ccc(C2C(=O)N(C3CCCCC3)CC(=O)N2CC2CCCO2)cc1 (configuration not stated) | – | inactive: 1%
COc1ccccc1CNC(=O)OCc1nccnc1C(=O)Nc1ccc(Br)cn1 | inconclusive: 20.6 µM [activator, partial curve] | –
Cc1cccc(N2CCC(NCc3c(C(=O)N4CCCCC4)nc4c(C)cccn34)CC2)c1 | active: 25.9 µM | –
CCOC(=O)c1cnn(-c2ccccc2)c1-n1cccc1C(=O)C(=O)Nc1ccc(OC)cc1 | – | inactive: -10.8%
c1ccc2c(c1)Cn1nc(Cc3nc4c(s3)CCCC4)nc1-2 | inconclusive: 18.4 µM [activator, partial curve] | –
COc1ccc(S(=O)(=O)N2CCCCC2)cc1NC(=O)CCNC(=O)c1ccc(Cl)cc1 | – | inactive: 7.78%
CC(=O)c1cccc(OCc2cc(C(=O)N(C)CCC3CCOCC3)no2)c1 | inconclusive: 23.1 µM [activator, single point] | –
O=C(CN1CCC(C(=O)c2ccc3c(c2)OCCO3)CC1)Nc1ccccc1F | inconclusive: 32.6 µM [inhibitor, single point] | –
CC1CCCC(C)N1C(=O)Cn1c(SCC(=O)Nc2ccc3c(c2)OCO3)nc2ccccc21 (configuration not stated) | inconclusive: 20.6 µM [inhibitor, single point] | –
CCC(c1nnnn1Cc1ccco1)N(Cc1cc2cc(C)cc(C)c2[nH]c1=O)CC1CCCO1 (configuration not stated) | inconclusive: 20.6 µM [inhibitor, single point] | –

Compound | Potency | activity change, negative = inhibition
CCn1cc(C(=O)OC(C)C(=O)Nc2c(C)n(C)n(-c3ccccc3)c2=O)c(=O)c2ccc(C)nc21 (configuration not stated) | inconclusive: 0.58 µM [activator, full curve, poor fit] | –
Cc1ccc(C(C)(O)CS(=O)(=O)Cc2ccccc2Cl)cc1 (configuration not stated) | inconclusive: 4.61 µM [inhibitor, single point] | –
CCOc1ccc(NC(=O)/C=C/c2ccccc2)c([N+](=O)[O-])c1 | inconclusive: 8.2 µM [activator, partial curve] | –
CCOc1ccc(CNC(=O)c2ccc(Sc3ccc(Cl)cc3)c(NC(C)=O)c2)cc1 | inconclusive: 29.1 µM [inhibitor, single point] | –
COc1cc(/C=C(\C#N)c2ccccn2)ccc1OCc1ccccc1Cl | inconclusive: 23.1 µM [inhibitor, single point] | –
COc1ccc(N(C(=O)c2ccco2)C(C(=O)NC2CCCC2)c2ccncc2)cc1 (configuration not stated) | inconclusive: 16.4 µM [activator, partial curve, poor fit] | –
Cc1cc(NC(=O)Nc2c[nH]c(=O)[nH]c2=O)ccc1Br | inconclusive: 6.51 µM [inhibitor, single point] | –
COc1cccc(NC(=O)CN(C)C(=O)C(CCSC)NC(=O)c2ccco2)c1 (configuration not stated) | – | inactive: -4.17%
CCOC(=O)c1ccc(NC(=O)CSc2nc3c(c(=O)n2CC)SC(C)C3)cc1 (configuration not stated) | inconclusive: 16.4 µM [inhibitor, partial curve, poor fit] | –
COc1ccc(CCc2nnc(CCC(=O)NCc3cc(C(C)C)no3)o2)cc1 | inconclusive: 18.3 µM [activator, partial curve] | –
COc1ccc(CNC(=O)C(c2ccc(C)o2)N(Cc2cccs2)C(=O)Cc2cccs2)cc1 (configuration not stated) | active: 20.6 µM | –
O=C1CCCc2c1cc(-c1ccccc1)n2-c1ccc(O)cc1 | inconclusive: 4.61 µM [activator, partial curve] | –
O=C1NC(=O)/C(=C\c2ccccc2OCc2cccc([N+](=O)[O-])c2)N1 | inconclusive: 25.9 µM [inhibitor, single point] | –
O=C(c1ccccc1)c1cc([N+](=O)[O-])ccc1N1CCOCC1 | inconclusive: 0.82 µM [inhibitor, full curve, poor fit] | –
O=C(c1ccccc1)c1nn(-c2ccccc2)c2nnc(Cc3ccccc3)c(=O)n12 | inconclusive: 14.6 µM [inhibitor, partial curve, poor fit] | –
CCCC(=O)Nc1nc2ccc(NC(=O)c3c(F)c(F)c(OC)c(F)c3F)cc2s1 | inconclusive: 3.66 µM [inhibitor, full curve] | –
O=C(NCc1ccccc1)/C(NC(=O)c1ccccc1)=C(/Sc1ccccn1)c1ccccc1 | inconclusive: 25.9 µM [inhibitor, single point] | –
O=[N+]([O-])c1ccccc1/C=N/N1CCN(c2ccc(Cl)cc2)CC1 | – | inactive: -21.8%
Cc1ccc(N(CC(=O)NC(C)(C)C)C(=O)CNC(=O)c2cccs2)c(C)c1 | – | inactive: 6.52%
O=C(CCNS(=O)(=O)c1ccccc1F)N1CCN(Cc2ccccc2)CC1 | – | inactive: 13%
COc1ccc(C(=O)/C=C/C(=O)N(Cc2ccc(F)cc2)C(C(=O)NC2CCCCC2)c2ccncc2)c(O)c1 (configuration not stated) | active: 18.4 µM | –

Source: PubChem BioAssay AID504467 (National Center for Advancing Translational Sciences (NCATS), 2011)
